This is one part of the list. Repeats are few or missing, and single values can be far off.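 Imaging used 1,536-well plates; nuclei positive for cleaved PARP by antibody were divided by total DNA-stained nuclei to yield the apoptosis fraction. Doses for screening kept most cells viable, and cell lines differ markedly in resting and induced cleaved-PARP levels.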
Legend:
Experiment in all cases: cleaved PARP positive nuclei fraction relative to DMSO control; melanoma cells; higher = more apoptosis
Conditions in all cases: library dose: low library concentration; 72 h
[1] = system: WM115
[2] = system: WM1716
[3] = system: WM1745
[4] = system: WM3526
[5] = system: WM3619
[6] = system: WM451Lu

SMILES	cleaved PARP positive nuclei fraction [1]	cleaved PARP positive nuclei fraction [2]	cleaved PARP positive nuclei fraction [3]	cleaved PARP positive nuclei fraction [4]	cleaved PARP positive nuclei fraction [5]	cleaved PARP positive nuclei fraction [6]
CS(=O)(=O)c1ccc(C(=O)Nc2ccc(Cl)c(-c3ccccn3)c2)c(Cl)c1 [vismodegib] + CCN(CC)CCCCNc1ncc2cc(-c3cc(OC)cc(OC)c3)c(NC(=O)NC(C)(C)C)nc2n1 [PD173074] (first compound 1 µM, partner dose 0.1 µM)	52%	124%	82.8%	66.8%	83.9%	86.1%
C[C@]1(O)C[C@@H](c2nc(-c3ccc4ccc(-c5ccccc5)nc4c3)c3c(N)nccn32)C1 + Cc1nc(Nc2ncc(C(=O)Nc3c(C)cccc3Cl)s2)cc(N2CCN(CCO)CC2)n1 [dasatanib] (first compound 0.4 µM, partner dose 0.004 µM)	18.9%	330%	201%	49.8%	107%	99%
CS(=O)(=O)c1ccc(C(=O)Nc2ccc(Cl)c(-c3ccccn3)c2)c(Cl)c1 [vismodegib] + Cn1c(Nc2ccc(C(F)(F)F)cc2)nc2cc(Oc3ccnc(-c4ncc(C(F)(F)F)[nH]4)c3)ccc21 [CHIR265] (first compound 1 µM, partner dose 0.08 µM)	264%	132%	104%	51.7%	131%	39.1%
CCN(CC)CCNC(=O)c1c(C)[nH]c(/C=C2\C(=O)Nc3ccc(F)cc32)c1C [sunitinib] + C[C@@H](Oc1cc(-c2cnn(C3CCNCC3)c2)cnc1N)c1c(Cl)ccc(F)c1Cl [Crizotinib] (first compound 0.4 µM, partner dose 0.2 µM)	37.2%	52.4%	114%	63.9%	55%	291%
CCN(CC)CCNC(=O)c1c(C)[nH]c(/C=C2\C(=O)Nc3ccc(F)cc32)c1C [sunitinib] + O=C(Nc1ccccc1)c1cc([N+](=O)[O-])ccc1Cl [GW9662] (first compound 0.4 µM, partner dose 2 µM)	46.6%	46.8%	108%	58%	88.6%	126%
CCCCCCCCc1ccc(CCC(N)(CO)CO)cc1 [fingolimod] + C[C@@H](Oc1cc(-c2cnn(C3CCNCC3)c2)cnc1N)c1c(Cl)ccc(F)c1Cl [Crizotinib] (first compound 2 µM, partner dose 0.2 µM)	35.8%	84.7%	123%	83.4%	99.7%	51.4%
COc1ccc(C2=N[C@@H](c3ccc(Cl)cc3)[C@@H](c3ccc(Cl)cc3)N2C(=O)N2CCNC(=O)C2)c(OC(C)C)c1 [Nutlin-3] + c1cc(-c2cnn3cc(-c4ccc(OCCN5CCCCC5)cc4)cnc23)ccn1 [Dorsomorphin] (first compound 0.1 µM, partner dose 0.4 µM)	197%	33.2%	93.7%	84%	105%	87.7%
Cn1sc(=O)n(Cc2ccccc2)c1=O + CN(c1ncccc1CNc1nc(Nc2ccc3c(c2)CC(=O)N3)ncc1C(F)(F)F)S(C)(=O)=O [PF562271] (first compound 0.4 µM, partner dose 0.08 µM)	55.6%	75.8%	107%	39%	96.7%	124%
CN(c1ncccc1CNc1nc(Nc2ccc3c(c2)CC(=O)N3)ncc1C(F)(F)F)S(C)(=O)=O + NC1(c2ccc(-c3nc4ccn5c(=O)[nH]nc5c4cc3-c3ccccc3)cc2)CCC1 [MK2206] (first compound 0.08 µM, partner dose 0.4 µM)	313%	189%	107%	84.3%	98.2%	63.9%
Cn1cnc2c(F)c(Nc3ccc(Br)cc3Cl)c(C(=O)NOCCO)cc21 [selumetinib] + O=C(Nc1cccc(Cl)c1)Nc1ncc(CCNc2ncnc3ccsc23)s1 [SNS314] (first compound 0.015 µM, partner dose 0.0008 µM)	152%	42.2%	219%	128%	122%	107%
C[C@]1(O)C[C@@H](c2nc(-c3ccc4ccc(-c5ccccc5)nc4c3)c3c(N)nccn32)C1 + CC(=O)O[C@@]12CO[C@@H]1C[C@H](O)[C@@]1(C)C(=O)[C@H](O)C3=C(C)[C@@H](OC(=O)[C@H](O)[C@@H](NC(=O)OC(C)(C)C)c4ccccc4)C[C@@](O)([C@@H](OC(=O)c4ccccc4)[C@H]21)C3(C)C [Docetaxel] (first compound 0.4 µM, partner dose 0.0001 µM)	364%	328%	245%	438%	137%	70.1%
Cn1cnc2c(F)c(Nc3ccc(Br)cc3Cl)c(C(=O)NOCCO)cc21 [selumetinib] + Oc1nc(-c2ccc(C(F)(F)F)cc2)nc2c1CSCC2 [XAV939] (first compound 0.015 µM, partner dose 2 µM)	153%	147%	472%	87.1%	105%	135%

Complete entries as entered above. Values in the order: cleaved PARP positive nuclei fraction [1]	cleaved PARP positive nuclei fraction [2]	cleaved PARP positive nuclei fraction [3]	cleaved PARP positive nuclei fraction [4]	cleaved PARP positive nuclei fraction [5]	cleaved PARP positive nuclei fraction [6]
CCN(CC)CCNC(=O)c1c(C)[nH]c(/C=C2\C(=O)Nc3ccc(F)cc32)c1C [sunitinib] + C[C@@H](Oc1cc(-c2cnn(C3CCNCC3)c2)cnc1N)c1c(Cl)ccc(F)c1Cl [Crizotinib] (first compound 0.4 µM, partner dose 0.2 µM) is listed as 37.2%	52.4%	114%	63.9%	55%	291%
CCN(CC)CCNC(=O)c1c(C)[nH]c(/C=C2\C(=O)Nc3ccc(F)cc32)c1C [sunitinib] + O=C(Nc1ccccc1)c1cc([N+](=O)[O-])ccc1Cl [GW9662] (first compound 0.4 µM, partner dose 2 µM) is listed as 46.6%	46.8%	108%	58%	88.6%	126%

Source: the supplement of paper PMC4604168 (melanoma cell lines)
